Data published in the supplement of paper PMC12823440, “Inhibitors supercharge kinase turnover through native proteolytic circuits” (Nature, 2025).
Counter-ions that a name gives are not always drawn. Some of the results follow. Hit calls seldom repeat between salt and free forms of one compound.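 Kinases, fused to nanoluciferase, were expressed in K562 cells; luminescence was measured every 4 h from 2 to 18 h as percent of control (DMSO = 100%, positive control = 0%). A time point is decreased if signal falls significantly (2 sigma). Hits were called by the authors by a rule that is not shown; the count of time points alone does not decide it.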

Chains of the proteins cited; added tags and fusions are not shown. Lines headed by an entry give the natural chain unless they say otherwise; changes in a name come on top.
UniProt Q05397, whole entry, looked up: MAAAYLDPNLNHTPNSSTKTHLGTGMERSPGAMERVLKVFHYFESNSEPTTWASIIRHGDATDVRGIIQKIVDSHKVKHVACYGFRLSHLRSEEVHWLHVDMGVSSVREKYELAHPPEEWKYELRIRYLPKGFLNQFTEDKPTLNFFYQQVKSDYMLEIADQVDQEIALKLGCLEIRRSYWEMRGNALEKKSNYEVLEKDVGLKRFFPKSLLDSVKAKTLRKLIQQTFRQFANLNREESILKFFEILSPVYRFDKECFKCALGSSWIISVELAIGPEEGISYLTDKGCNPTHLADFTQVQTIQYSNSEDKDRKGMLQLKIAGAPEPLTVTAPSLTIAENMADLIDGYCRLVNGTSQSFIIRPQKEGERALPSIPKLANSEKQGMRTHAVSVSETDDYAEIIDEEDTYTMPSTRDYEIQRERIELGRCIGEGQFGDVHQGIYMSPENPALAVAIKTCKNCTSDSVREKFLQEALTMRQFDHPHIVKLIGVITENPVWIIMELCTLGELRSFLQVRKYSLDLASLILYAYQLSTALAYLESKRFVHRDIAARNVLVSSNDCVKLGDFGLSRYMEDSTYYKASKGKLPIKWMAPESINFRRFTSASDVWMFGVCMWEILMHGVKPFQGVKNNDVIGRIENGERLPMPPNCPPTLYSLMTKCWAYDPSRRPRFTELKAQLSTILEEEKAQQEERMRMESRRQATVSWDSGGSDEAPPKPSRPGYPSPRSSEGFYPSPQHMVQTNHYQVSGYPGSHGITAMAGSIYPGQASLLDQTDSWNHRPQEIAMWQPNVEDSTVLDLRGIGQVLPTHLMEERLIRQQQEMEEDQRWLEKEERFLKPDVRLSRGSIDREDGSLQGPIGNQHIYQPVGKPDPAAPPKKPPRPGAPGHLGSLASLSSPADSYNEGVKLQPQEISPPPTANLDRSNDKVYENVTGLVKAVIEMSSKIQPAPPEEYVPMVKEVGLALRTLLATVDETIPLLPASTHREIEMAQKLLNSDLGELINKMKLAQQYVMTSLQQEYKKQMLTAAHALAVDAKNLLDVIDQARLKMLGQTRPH
UniProt Q14289, whole entry, looked up: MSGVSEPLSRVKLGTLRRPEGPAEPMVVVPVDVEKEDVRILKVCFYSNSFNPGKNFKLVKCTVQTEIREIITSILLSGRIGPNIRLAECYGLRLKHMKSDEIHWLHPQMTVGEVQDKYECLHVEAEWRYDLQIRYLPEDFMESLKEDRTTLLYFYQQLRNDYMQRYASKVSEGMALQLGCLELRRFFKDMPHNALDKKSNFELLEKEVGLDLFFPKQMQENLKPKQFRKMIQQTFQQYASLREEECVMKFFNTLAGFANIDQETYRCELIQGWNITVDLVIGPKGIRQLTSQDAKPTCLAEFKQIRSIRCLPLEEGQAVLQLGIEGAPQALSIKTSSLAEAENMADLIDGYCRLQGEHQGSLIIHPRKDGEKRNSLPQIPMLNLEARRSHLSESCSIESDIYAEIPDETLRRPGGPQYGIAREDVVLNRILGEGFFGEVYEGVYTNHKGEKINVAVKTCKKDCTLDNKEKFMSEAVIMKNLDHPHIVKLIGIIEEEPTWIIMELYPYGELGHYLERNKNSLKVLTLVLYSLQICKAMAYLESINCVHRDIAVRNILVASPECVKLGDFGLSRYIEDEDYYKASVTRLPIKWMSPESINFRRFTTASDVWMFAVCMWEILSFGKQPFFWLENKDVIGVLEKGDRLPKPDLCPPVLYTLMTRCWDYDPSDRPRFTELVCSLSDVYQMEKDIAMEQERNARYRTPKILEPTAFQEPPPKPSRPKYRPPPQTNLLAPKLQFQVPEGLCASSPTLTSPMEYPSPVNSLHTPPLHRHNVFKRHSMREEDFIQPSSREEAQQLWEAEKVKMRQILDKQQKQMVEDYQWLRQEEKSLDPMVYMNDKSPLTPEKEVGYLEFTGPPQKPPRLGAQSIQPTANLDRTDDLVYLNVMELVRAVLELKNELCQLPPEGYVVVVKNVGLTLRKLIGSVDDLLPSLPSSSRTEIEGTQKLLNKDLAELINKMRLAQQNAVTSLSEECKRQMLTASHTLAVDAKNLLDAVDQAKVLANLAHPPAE
UniProt P07949, whole entry, looked up: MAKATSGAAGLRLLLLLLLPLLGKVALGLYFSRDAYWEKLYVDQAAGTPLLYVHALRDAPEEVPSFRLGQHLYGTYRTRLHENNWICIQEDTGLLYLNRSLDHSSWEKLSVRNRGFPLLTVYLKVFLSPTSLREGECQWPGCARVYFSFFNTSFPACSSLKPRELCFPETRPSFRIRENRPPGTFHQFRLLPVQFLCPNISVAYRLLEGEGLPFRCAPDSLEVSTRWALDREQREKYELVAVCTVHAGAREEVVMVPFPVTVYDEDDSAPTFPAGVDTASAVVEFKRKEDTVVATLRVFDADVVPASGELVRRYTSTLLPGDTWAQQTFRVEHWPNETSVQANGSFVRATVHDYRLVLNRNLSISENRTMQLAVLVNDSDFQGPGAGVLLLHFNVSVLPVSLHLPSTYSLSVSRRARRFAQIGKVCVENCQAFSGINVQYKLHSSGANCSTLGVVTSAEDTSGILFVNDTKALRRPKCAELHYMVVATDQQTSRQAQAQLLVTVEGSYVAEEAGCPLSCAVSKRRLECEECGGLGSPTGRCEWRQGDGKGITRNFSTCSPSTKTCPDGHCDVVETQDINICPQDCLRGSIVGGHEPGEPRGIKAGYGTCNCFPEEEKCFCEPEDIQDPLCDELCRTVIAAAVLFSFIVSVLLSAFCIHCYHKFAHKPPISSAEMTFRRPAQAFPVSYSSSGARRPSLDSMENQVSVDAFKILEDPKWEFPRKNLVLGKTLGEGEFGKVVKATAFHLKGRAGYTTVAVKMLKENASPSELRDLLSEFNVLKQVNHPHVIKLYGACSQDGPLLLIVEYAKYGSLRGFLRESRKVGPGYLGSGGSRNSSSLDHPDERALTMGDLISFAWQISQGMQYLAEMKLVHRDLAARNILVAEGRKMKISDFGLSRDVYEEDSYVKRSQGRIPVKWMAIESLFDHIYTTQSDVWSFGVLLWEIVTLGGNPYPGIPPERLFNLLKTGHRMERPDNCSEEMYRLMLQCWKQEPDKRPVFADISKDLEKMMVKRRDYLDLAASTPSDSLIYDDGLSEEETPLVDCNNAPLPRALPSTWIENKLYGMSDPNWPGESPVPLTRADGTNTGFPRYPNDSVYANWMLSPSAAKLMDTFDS
UniProt P07949, whole entry M918T, looked up: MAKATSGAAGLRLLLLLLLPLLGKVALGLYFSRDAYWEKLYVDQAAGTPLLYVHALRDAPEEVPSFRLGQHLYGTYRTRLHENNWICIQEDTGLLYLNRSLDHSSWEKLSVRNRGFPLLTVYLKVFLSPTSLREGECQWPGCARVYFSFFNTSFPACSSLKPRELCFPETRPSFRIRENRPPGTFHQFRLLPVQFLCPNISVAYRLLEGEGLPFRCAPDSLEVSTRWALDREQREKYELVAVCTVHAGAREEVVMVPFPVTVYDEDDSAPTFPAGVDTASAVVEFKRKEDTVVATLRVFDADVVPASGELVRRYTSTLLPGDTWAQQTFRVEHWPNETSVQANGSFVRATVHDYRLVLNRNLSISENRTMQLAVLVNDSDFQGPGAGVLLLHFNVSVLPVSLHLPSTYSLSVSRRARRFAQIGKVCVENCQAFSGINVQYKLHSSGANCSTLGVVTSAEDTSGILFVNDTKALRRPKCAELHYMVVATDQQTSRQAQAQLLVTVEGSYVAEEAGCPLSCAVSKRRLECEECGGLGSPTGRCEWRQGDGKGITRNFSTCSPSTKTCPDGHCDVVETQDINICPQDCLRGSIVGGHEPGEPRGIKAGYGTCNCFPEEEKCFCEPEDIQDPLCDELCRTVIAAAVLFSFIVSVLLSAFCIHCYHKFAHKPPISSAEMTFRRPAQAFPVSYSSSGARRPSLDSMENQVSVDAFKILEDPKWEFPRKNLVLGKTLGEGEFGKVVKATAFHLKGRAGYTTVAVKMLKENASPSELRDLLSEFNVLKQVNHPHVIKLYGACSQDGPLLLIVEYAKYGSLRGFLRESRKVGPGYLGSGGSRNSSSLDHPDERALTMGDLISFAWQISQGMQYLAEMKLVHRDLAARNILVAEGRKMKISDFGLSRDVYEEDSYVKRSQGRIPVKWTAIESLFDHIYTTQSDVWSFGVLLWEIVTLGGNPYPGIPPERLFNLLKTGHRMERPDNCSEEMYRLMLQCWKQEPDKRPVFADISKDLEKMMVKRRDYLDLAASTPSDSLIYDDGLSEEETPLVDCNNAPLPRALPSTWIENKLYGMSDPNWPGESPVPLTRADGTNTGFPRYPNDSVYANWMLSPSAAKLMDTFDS
UniProt Q9BRS2: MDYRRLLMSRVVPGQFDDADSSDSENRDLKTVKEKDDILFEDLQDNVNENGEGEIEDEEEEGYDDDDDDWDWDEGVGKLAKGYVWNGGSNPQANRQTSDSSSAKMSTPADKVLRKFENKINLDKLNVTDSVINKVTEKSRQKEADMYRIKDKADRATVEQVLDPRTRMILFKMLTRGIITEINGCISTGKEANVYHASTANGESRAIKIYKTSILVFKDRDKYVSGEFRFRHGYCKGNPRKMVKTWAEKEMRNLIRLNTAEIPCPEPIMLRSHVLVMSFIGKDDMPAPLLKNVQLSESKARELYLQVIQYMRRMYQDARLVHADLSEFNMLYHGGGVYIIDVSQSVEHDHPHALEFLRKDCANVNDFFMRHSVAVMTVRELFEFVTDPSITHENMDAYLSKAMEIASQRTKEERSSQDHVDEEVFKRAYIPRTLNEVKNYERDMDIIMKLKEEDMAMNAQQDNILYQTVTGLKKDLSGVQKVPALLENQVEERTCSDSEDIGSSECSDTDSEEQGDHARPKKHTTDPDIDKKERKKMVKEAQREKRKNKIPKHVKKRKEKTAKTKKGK
UniProt Q13546: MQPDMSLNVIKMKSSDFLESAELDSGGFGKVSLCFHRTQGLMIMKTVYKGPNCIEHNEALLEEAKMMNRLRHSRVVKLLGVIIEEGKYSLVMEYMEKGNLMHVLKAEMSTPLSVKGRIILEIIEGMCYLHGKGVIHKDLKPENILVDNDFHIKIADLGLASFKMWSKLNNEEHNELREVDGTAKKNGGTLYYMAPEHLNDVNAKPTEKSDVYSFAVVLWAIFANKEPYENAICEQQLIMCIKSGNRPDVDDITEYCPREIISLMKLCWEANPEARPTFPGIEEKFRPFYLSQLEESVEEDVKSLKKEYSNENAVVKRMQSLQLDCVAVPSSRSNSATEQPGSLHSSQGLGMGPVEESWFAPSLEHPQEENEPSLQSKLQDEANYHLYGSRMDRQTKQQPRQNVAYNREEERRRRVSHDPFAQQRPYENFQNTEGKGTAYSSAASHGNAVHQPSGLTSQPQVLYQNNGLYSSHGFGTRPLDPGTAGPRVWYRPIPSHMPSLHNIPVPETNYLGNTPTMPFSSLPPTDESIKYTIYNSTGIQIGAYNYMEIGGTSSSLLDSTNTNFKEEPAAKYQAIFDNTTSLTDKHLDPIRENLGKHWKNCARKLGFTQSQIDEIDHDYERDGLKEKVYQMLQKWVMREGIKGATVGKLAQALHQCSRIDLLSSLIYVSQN

Legend:
Assay in all cases: number of time points (of 5) at which kinase-Nluc abundance scored as decreased, DMSO-normalised (count); higher = more persistent destabilization
Settings in all cases: K562; 2-18 h
PRKCA = PRKCA (UniProt P17252)
PTK2 = PTK2 (UniProt Q05397)
PTK2B = PTK2B (UniProt Q14289)
RAF1 = RAF1 (UniProt P04049)
[1] = molecular target: RAF1_S257L (clone: RAF1_mut) (UniProt P04049)
RET = RET (UniProt P07949)
[2] = molecular target: RET_M918T (clone: RET_mut) (UniProt P07949)
RIOK1 = RIOK1 (UniProt Q9BRS2)
RIPK1 = RIPK1 (UniProt Q13546)
RIPK2 = RIPK2 (UniProt O43353)

Measured: number of time points

CC(C)=CC[C@@H](O)C1=CC(=O)c2c(O)ccc(O)c2C1=O [Shikonin] (10 µM)
0: all assays above

CN1CCN(c2ccc(Nc3ncc4cc(C#N)c(=O)n(C5CCCC5)c4n3)cc2)CC1 (10 µM)
3: RIPK2
0: all other assays above

Fc1ccc2[nH]ccc2c1-c1nc(N2CCOCC2)c2sc(CN3CCN(CC4CC4)CC3)cc2n1 (10 µM)
0: all assays above

Cc1cc(O)c2c(c1)C(=O)c1cccc(O)c1C2=O [Chrysophanol] (2 µM)
0: all assays above

COc1cc2c(cc1O)C[C@H]1c3cc(O)c(OC)cc3CC[N@@+]1(C)C2 [Phellodendrine] (10 µM)
0: all assays above

O=c1cc(-c2ccccc2)oc2cc(O[C@@H]3O[C@H](CO[C@@H]4O[C@H](CO)[C@@H](O)[C@H](O)[C@H]4O)[C@@H](O)[C@H](O)[C@H]3O)c(O)c(O)c12 [Oroxin B] (10 µM)
0: all assays above

Cc1cccc(COc2cccc(/C=C3\C(=O)NN(c4ccccc4)C3=O)c2)c1 (10 µM)
0: all assays above

NCC1CCC(CNc2nc(NCc3ccccc3OC(F)(F)F)ncc2[N+](=O)[O-])CC1 (stereo not given) [PKC-theta inhibitor] (10 µM)
4: RET | [2] | RIPK1
2: RIOK1
1: RAF1
3: [1]
0: all other assays above

CCCCCc1ccc(/C=C/[C@H](O)[C@@H](CO)NC)cc1 [SK1-I (hydrochloride)] (10 µM)
0: all assays above

CN(C)c1ccc(-c2nc3ncc(Cl)c(N4CCN(CC(=O)Nc5nccs5)CC4)c3[nH]2)cc1 (2 µM)
0: all assays above

Cn1cc(-c2cc(Oc3cc(F)c(NC(=O)C4(C(=O)Nc5ccccc5)CC4)cc3F)ccn2)cn1 (2.5 µM)
0: all assays above

Oc1c(F)cc(-c2cnccc2-c2ccc(N3CCOCC3)cc2)cc1F (10 µM)
0: all assays above

CO[C@H]1C[C@@H]2CC[C@@H](C)[C@@](O)(O2)C(=O)C(=O)N2CCCC[C@H]2C(=O)O[C@H]([C@H](C)C[C@@H]2CC[C@@H](OCCO)[C@H](OC)C2)CC(=O)[C@H](C)/C=C(\C)[C@@H](O)[C@@H](OC)C(=O)[C@H](C)C[C@H](C)/C=C/C=C/C=C/1C [Everolimus] (10 µM)
1: PTK2
0: all other assays above

CC(C)CCN1c2nc(Nc3cc(F)c(O)c(F)c3)ncc2N(C)C(=O)C1C (stereo not given) (2.5 µM)
1: PRKCA
0: all other assays above

COc1cc(-c2cc(-c3ccc(N4CCNCC4)cc3)cnc2C)cc(OC)c1OC (10 µM)
0: all assays above

O=c1c2c([nH]n1-c1nc3ccccc3s1)CCCC2 (10 µM)
0: all assays above

Reprinted from above, 3 compounds:
CC(C)CCN1c2nc(Nc3cc(F)c(O)c(F)c3)ncc2N(C)C(=O)C1C (stereo not given) (2.5 µM)
1: PRKCA
0: all other assays above

COc1cc(-c2cc(-c3ccc(N4CCNCC4)cc3)cnc2C)cc(OC)c1OC (10 µM)
0: all assays above

O=c1c2c([nH]n1-c1nc3ccccc3s1)CCCC2 (10 µM)
0: all assays above

(listing goes on)

CC(C)n1c(=O)n(C)c2cnc3cc(F)c(-c4ccc(OCCCN5CCCCC5)nc4)cc3c21 (10 µM)
0: all assays above

COc1cc(N2CCOCC2)ccc1Nc1ncc(F)c(Nc2ccccc2NS(C)(=O)=O)n1 (10 µM)
0: all assays above

C[C@@H]1O[C@@H](Oc2cc(O)c3c(=O)c(O[C@@H]4O[C@@H](C)[C@H](O)[C@@H](O)[C@H]4O)c(-c4ccc(O)cc4)oc3c2)[C@H](O)[C@H](O)[C@H]1O [Kaempferitrin] (10 µM)
0: all assays above

COc1cc2cc(Oc3ccc4ccc(=O)oc4c3)c(=O)oc2cc1O [Daphnoretin] (10 µM)
0: all assays above

C=C1C(=O)[C@@]23[C@H](O)C[C@@H]4C(C)(C)C(=O)CC[C@@]4(C)[C@@H]2CC[C@@H]1[C@H]3O [Glaucocalyxin A] (2.5 µM)
2: RIPK1
0: all other assays above

O=c1cc(N2CCOCC2)oc2c(-c3ccc4c(c3)OCCO4)csc12 (2.5 µM)
0: all assays above

Nc1ncc(-c2ccnc(Nc3ccncc3)n2)c(CC2CC2)n1 (10 µM)
2: RAF1
1: [1] | RIPK1
0: all other assays above

C=CC(=O)Nc1cc(Nc2nccc(-c3cn(C)c4ccccc34)n2)c(OC)cc1N(C)CCNC [AZ7550 Mesylate] (2.5 µM)
1: [1]
0: all other assays above

Nc1nc(NCCNc2ncc(-n3ccnc3)c(-c3ccc(Cl)cc3Cl)n2)ccc1[N+](=O)[O-] (2.5 µM)
0: all assays above

Cc1cnc(NC(=O)c2cc(Oc3cnc(C(=O)N(C)C)nc3)c3cc(C)oc3c2)cn1 (10 µM)
0: all assays above

O=C1Nc2ccc(I)cc2/C1=C/c1cc(Br)c(O)c(Br)c1 (10 µM)
5: PTK2
4: PRKCA
3: RAF1
0: all other assays above

COC(=O)Nc1ccc(-c2nc(N3CCOCC3)c3cnn(C4CCN(C(=O)OC)CC4)c3n2)cc1 (10 µM)
0: all assays above

CCN1CCN(Cc2cnc(Nc3cc(-c4cc(F)c5nc(C)n(C(C)C)c5c4)c(F)cn3)nc2)CC1 (10 µM)
1: [1]
0: all other assays above

CCCCCC(=O)N[C@@H](Cc1ccc(O)cc1)C(=O)OC (10 µM)
0: all assays above

C=CC(=O)Nc1cccc(Oc2nc(Nc3ccc(N4CCN(C)CC4)c(F)c3)nc3[nH]ccc23)c1 [Avitinib (maleate)] (2.5 µM)
0: all assays above

CO[C@H]1CC[C@H](N2C(=O)CNc3ncc(-c4ccc(C(C)(C)O)nc4)nc32)CC1 (2.5 µM)
0: all assays above

C=CC(=O)N1CCN(C(=O)CNc2cc(I)c(Cl)cc2O)CC1 [K-Ras(G12C) inhibitor 12] (10 µM)
2: [1]
0: all other assays above

N[C@@H]1CCCN(c2c(/C=C3\SC(=O)NC3=O)cccc2-c2ccccc2)C1 (10 µM)
3: [1]
2: RIOK1
0: all other assays above

COc1cc(-c2oc3cc(O)cc(O)c3c(=O)c2O)ccc1O [Isorhamnetin] (10 µM)
0: all assays above

NC1(C(=O)NCCCn2cc(-c3ccc(OC(F)(F)F)cc3)c3cc(CN4CCN(Cc5c(Cl)cccc5Cl)CC4)ccc32)CCNCC1 (2.5 µM)
0: all assays above

Cc1cc(Nc2cc(N3CCN(C)CC3)nc(Nc3ccc([N+](=O)[O-])cc3)n2)n[nH]1 (2.5 µM)
2: RAF1
3: PTK2
0: all other assays above

O=C(Nc1cccnc1)c1cc(-c2ccnc(F)c2)ccc1OCc1ccccc1 (10 µM)
0: all assays above

Cn1c(CNc2cccc(C(=O)NCc3ccccc3C(F)(F)F)c2)nnc1-c1ccncc1 (10 µM)
0: all assays above

COc1ccc(S(=O)(=O)Nc2cc(-c3c(O)ccc4ccccc34)c(O)c3ccccc23)cc1 (10 µM)
1: [1]
0: all other assays above

CC(C)Oc1ccc(F)c(-c2cnc(N)c(C(=O)Nc3cnccc3N3CCC[C@@H](C(=O)O)C3)n2)c1 (2 µM)
3: RIPK2
2: RIPK1
0: all other assays above

O=C(NCCO)c1cc(C(=O)NCCO)cc(C(=O)NCCO)c1 (10 µM)
0: all assays above

Nc1[nH]nc2nc(-c3ccc(NS(=O)(=O)c4cc(Cl)ccc4Cl)cc3)cnc12 (10 µM)
0: all assays above

O=C1NC(=O)/C(=C\c2c[nH]c(=O)c(-c3ccc(N4CCNCC4)nc3)c2)S1 [Protein kinase inhibitors 1 hydrochloride] (10 µM)
0: all assays above

CCC(=O)Nc1cccc(Oc2nc(Nc3ccc(N4CCN(C)CC4)cc3OC)ncc2Cl)c1 (10 µM)
0: all assays above
